# According to the supplement of paper PMC8728848:
# The other results are listed elsewhere or left out.
# B1: LERP (Drosophila melanogaster), B7Z0Q8 (protein)
# chain: MRCSLQKDCAAPTQENFRQMRFPIVISLLLLLFCSGESVAADAANQLKFSTTECKLKEPIYGSTFDFSGLHSDLAHVVKSMNIGGDQFEFNICGNLSRTCNGESNVAACLKRQGKEYILGRQHELFYNNGNMFLKYKSGAKCDNGTADKPNYQLHVMFSCDYTLDAQPMHVTPYANEVCSFYISYRTPLACLSIPEGLQSNSCRVGDTKSNGTFDLMPLSDSNYHTSNRQGAFFVINVCKPVLYGENSMCPAGSSVCLFDSKATNPKERFINFGNVQTHPVVEKGQLLLRHESPTPCAKNSSANYTSVIYFSCDKFIRNAHPEFAGLGADSCTYQFNFATPLACNDLKPCTAFTSTNELLDLSSLSSKPARTLLKDGKNYTIAVCAHAGAPCQENGGACYEQNSTTISLGNSNSQLRFNQTGSLYLLYEDGAECSTATGMRRWSTKIEFVCANNATKDNGASTAGGSDSLKIIEDSNCQLLIQYQTPLACREPIRCKATTYVDHTNDGLGSSGDELIDLTPLISATDNYEARVELPASMEHLVPKTTKFFLNVCRPLVPKYQLGCAGGSAACMAKVTAAGAPEEERSMGFPLVSLTQRNRTFAELAYLKGDPCPTDNTSELSTHILFNCNMRAGRGQPVLRSVEDCAYRFEWETNVFCPPHECTFSADTCDLVHDELGRRFNFKSAPFTKDGKIEIDYNATKMSVNICGAHRKAMTDYSQALVNIFFTHESPNCGREGTMNVQIRLICSDQTESSSTISSDQQCNLLYVQRTPSICEFLSLGATQQNFESNGSTSSSTSSSSTSTTTSTTTQASPAGKPTKAATSTTTTTVGPDPAATPIGPTASVGTILGAILSVTFCVTCLGLLAFSPARRQRIRRLFRRSNSAVRYSRVQSNEEANLLLEPNGEFTESDDDMLL
# Tests used:
# Test in all cases: glycan array binding signal (z-score within array); higher = stronger binding
# Details in all cases: glycan notation: IUPAC condensed, linker removed
# [1] = target: Gal(b1-4)GlcNAc(a1-6)Gal(b1-4)GlcNAc
# In short: (§1)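 The Consortium for Functional Glycomics database supplied 3228 glycan arrays, of which those lacking an available protein sequence were dropped. The binding signal, a within-array Z-score, was averaged across arrays of the same protein sequence and across linkers. Negative scores can be read as non-binding.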
# [2] = target: Gal(b1-4)GlcNAc(b1-2)Man(a1-3)Man(b1-4)GlcNAc(b1-4)GlcNAc
# In short: as §1
# [3] = target: Gal(b1-4)GlcNAc(b1-2)Man(a1-3)[Gal(b1-4)GlcNAc(b1-2)Man(a1-6)]Man(b1-4)GlcNAc(b1-4)GlcNAc
# In short: as §1
# [4] = target: Gal(b1-4)GlcNAc(b1-2)Man(a1-3)[Gal(b1-4)GlcNAc(b1-2)Man(a1-6)]Man(b1-4)GlcNAc(b1-4)[Fuc(a1-6)]GlcNAc
# In short: as §1
# [5] = target: Gal(b1-4)GlcNAc(b1-2)Man(a1-3)[GlcNAc(b1-2)Man(a1-6)]Man(b1-4)GlcNAc(b1-4)GlcNAc
# In short: as §1
# [6] = target: Gal(b1-4)GlcNAc(b1-2)Man(a1-3)[Man(a1-6)]Man(b1-4)GlcNAc(b1-4)GlcNAc
# In short: as §1
# [7] = target: Gal(b1-4)GlcNAc(b1-2)Man(a1-6)Man(b1-4)GlcNAc(b1-4)GlcNAc
# In short: as §1
# [8] = target: Gal(b1-4)GlcNAc(b1-2)Man(a1-6)[GlcNAc(b1-2)Man(a1-3)]Man(b1-4)GlcNAc(b1-4)GlcNAc
# In short: as §1
# [9] = target: Gal(b1-4)GlcNAc(b1-2)Man(a1-6)[Man(a1-3)]Man(b1-4)GlcNAc(b1-4)GlcNAc
# In short: as §1
# [10] = target: Gal(b1-4)GlcNAc(b1-2)[Gal(b1-4)GlcNAc(b1-4)]Man(a1-3)[Gal(b1-4)GlcNAc(b1-2)Man(a1-6)]Man(b1-4)GlcNAc(b1-4)GlcNAc
# In short: as §1
# [11] = target: Gal(b1-4)GlcNAc(b1-2)[Gal(b1-4)GlcNAc(b1-4)]Man(a1-3)[Gal(b1-4)GlcNAc(b1-2)[Gal(b1-4)GlcNAc(b1-6)]Man(a1-6)]Man(b1-4)GlcNAc(b1-4)GlcNAc
# In short: as §1
# [12] = target: Gal(b1-4)GlcNAc(b1-3)Gal(b1-3)GlcNAc
# In short: as §1
# [13] = target: Gal(b1-4)GlcNAc(b1-3)Gal(b1-4)Glc
# In short: as §1
# [14] = target: Gal(b1-4)GlcNAc(b1-3)Gal(b1-4)GlcNAc
# In short: as §1
# [15] = target: Gal(b1-4)GlcNAc(b1-3)Gal(b1-4)GlcNAc(b1-3)Gal(b1-4)GlcNAc
# In short: as §1
# [16] = target: Gal(b1-4)GlcNAc(b1-3)Gal(b1-4)[Fuc(a1-3)]GlcNAc(b1-3)Gal(b1-4)[Fuc(a1-3)]GlcNAc
# In short: as §1
# [17] = target: Gal(b1-4)GlcNAc(b1-3)GalNAc
# In short: as §1
# [18] = target: Gal(b1-4)GlcNAc(b1-3)[Gal(b1-4)GlcNAc(b1-6)]Gal(b1-4)GlcNAc
# In short: as §1
# [19] = target: Gal(b1-4)GlcNAc(b1-3)[Gal(b1-4)GlcNAc(b1-6)]GalNAc
# In short: as §1
# [20] = target: Gal(b1-4)GlcNAc(b1-3)[GlcNAc(b1-6)]Gal(b1-4)GlcNAc
# In short: as §1
# [21] = target: Gal(b1-4)GlcNAc(b1-6)Gal(b1-4)GlcNAc
# In short: as §1
# [22] = target: Gal(b1-4)GlcNAc(b1-6)GalNAc
# In short: as §1
# [23] = target: Gal(b1-4)GlcNAc(b1-6)[Gal(b1-3)]GalNAc
# In short: as §1
# [24] = target: Gal3S(b1-3)GalNAc
# In short: as §1
# [25] = target: Gal3S(b1-3)GlcNAc
# In short: as §1
# [26] = target: Gal3S(b1-3)[Fuc(a1-4)]GlcNAc
# In short: as §1
# [27] = target: Gal3S(b1-4)Glc
# In short: as §1
# [28] = target: Gal3S(b1-4)Glc6S
# In short: as §1
# [29] = target: Gal3S(b1-4)GlcNAc
# In short: as §1
# [30] = target: Gal3S(b1-4)GlcNAc6S
# In short: as §1
# [31] = target: Gal3S(b1-4)[Fuc(a1-3)]Glc
# In short: as §1
# [32] = target: Gal3S(b1-4)[Fuc(a1-3)]Glc6S
# In short: as §1
# [33] = target: Gal3S4S(b1-4)GlcNAc
# In short: as §1
# [34] = target: Gal3S6S(b1-4)GlcNAc
# In short: as §1
# [35] = target: Gal3S6S(b1-4)GlcNAc6S
# In short: as §1
# [36] = target: Gal4S(b1-4)GlcNAc
# In short: as §1
# [37] = target: Gal4S6S(b1-4)GlcNAc
# In short: as §1
# [38] = target: Gal6S(b1-4)Glc
# In short: as §1
# [39] = target: Gal6S(b1-4)Glc6S
# In short: as §1
# [40] = target: Gal6S(b1-4)GlcNAc
# In short: as §1
# [41] = target: Gal6S(b1-4)GlcNAc6S
# In short: as §1
# [42] = target: GalNAc(a1-3)Gal
# In short: as §1
# [43] = target: GalNAc(a1-3)GalNAc
# In short: as §1
# [44] = target: GalNAc(a1-3)GalNAc(a1-3)Gal(a1-4)Gal(b1-4)GlcNAc
# In short: as §1
# [45] = target: GalNAc(b1-3)Gal
# In short: as §1
# [46] = target: GalNAc(b1-3)Gal(a1-4)Gal(b1-4)GlcNAc
# In short: as §1
# [47] = target: GalNAc(b1-3)Gal(a1-4)Gal(b1-4)GlcNAc(b1-3)Gal(b1-4)Glc
# In short: as §1
# [48] = target: GalNAc(b1-3)Gal(a1-6)Gal(b1-4)Glc
# In short: as §1
# [49] = target: GalNAc(b1-3)GalNAc
# In short: as §1
# [50] = target: GalNAc(b1-4)GlcNAc
# In short: as §1
# [51] = target: GalNAc(b1-4)GlcNAc(b1-2)Man(a1-3)[GalNAc(b1-4)GlcNAc(b1-2)Man(a1-6)]Man(b1-4)GlcNAc(b1-4)GlcNAc
# In short: as §1
# [52] = target: Glc(a1-4)Glc
# In short: as §1
# [53] = target: Glc(a1-6)Glc(a1-6)Glc
# In short: as §1
# [54] = target: Glc(b1-4)Glc
# In short: as §1
# [55] = target: Glc(b1-6)Glc
# In short: as §1
# [56] = target: GlcA(b1-3)Gal
# In short: as §1
# [57] = target: GlcA(b1-3)GlcNAc
# In short: as §1
# [58] = target: GlcA(b1-6)Gal
# In short: as §1
# [59] = target: GlcNAc(a1-3)Gal(b1-4)GlcNAc
# In short: as §1
# [60] = target: GlcNAc(a1-4)Gal(b1-3)GlcNAc
# In short: as §1
binder,measurement,setting,value
B1,glycan array binding signal (z-score),[1],-0.745
same,glycan array binding signal (z-score),[2],-0.223
same,glycan array binding signal (z-score),[3],-0.368
same,glycan array binding signal (z-score),[4],-0.281
same,glycan array binding signal (z-score),[5],-0.6
same,glycan array binding signal (z-score),[6],-1.11
same,glycan array binding signal (z-score),[7],-0.636
same,glycan array binding signal (z-score),[8],-0.013
same,glycan array binding signal (z-score),[9],-0.17
same,glycan array binding signal (z-score),[10],-0.021
same,glycan array binding signal (z-score),[11],-1.27
same,glycan array binding signal (z-score),[12],-0.627
same,glycan array binding signal (z-score),[13],-0.059
same,glycan array binding signal (z-score),[14],-0.911
same,glycan array binding signal (z-score),[15],-0.49
same,glycan array binding signal (z-score),[16],-0.219
same,glycan array binding signal (z-score),[17],0.146
same,glycan array binding signal (z-score),[18],-0.458
same,glycan array binding signal (z-score),[19],-0.643
same,glycan array binding signal (z-score),[20],1.36
same,glycan array binding signal (z-score),[21],-0.46
same,glycan array binding signal (z-score),[22],1.55
same,glycan array binding signal (z-score),[23],0.02
same,glycan array binding signal (z-score),[24],-0.198
same,glycan array binding signal (z-score),[25],-0.556
same,glycan array binding signal (z-score),[26],-0.363
same,glycan array binding signal (z-score),[27],-0.34
same,glycan array binding signal (z-score),[28],0.61
same,glycan array binding signal (z-score),[29],-0.01
same,glycan array binding signal (z-score),[30],-0.351
same,glycan array binding signal (z-score),[31],0.613
same,glycan array binding signal (z-score),[32],1.16
same,glycan array binding signal (z-score),[33],-0.317
same,glycan array binding signal (z-score),[34],-0.799
same,glycan array binding signal (z-score),[35],0.685
same,glycan array binding signal (z-score),[36],-0.871
same,glycan array binding signal (z-score),[37],0.955
same,glycan array binding signal (z-score),[38],0.053
same,glycan array binding signal (z-score),[39],-0.364
same,glycan array binding signal (z-score),[40],-0.017
same,glycan array binding signal (z-score),[41],0.038
same,glycan array binding signal (z-score),[42],-0.561
same,glycan array binding signal (z-score),[43],-0.435
same,glycan array binding signal (z-score),[44],0.26
same,glycan array binding signal (z-score),[45],0.282
same,glycan array binding signal (z-score),[46],-0.234
same,glycan array binding signal (z-score),[47],-0.94
same,glycan array binding signal (z-score),[48],-0.9
same,glycan array binding signal (z-score),[49],0.145
same,glycan array binding signal (z-score),[50],-0.735
same,glycan array binding signal (z-score),[51],2.15
same,glycan array binding signal (z-score),[52],-0.61
same,glycan array binding signal (z-score),[53],0
same,glycan array binding signal (z-score),[54],-0.464
same,glycan array binding signal (z-score),[55],-0.186
same,glycan array binding signal (z-score),[56],-0.753
same,glycan array binding signal (z-score),[57],-0.222
same,glycan array binding signal (z-score),[58],-0.571
same,glycan array binding signal (z-score),[59],-0.603
same,glycan array binding signal (z-score),[60],-0.828

# A portion of the results above, as a working copy:
binder,measurement,setting,value
B1,glycan array binding signal (z-score),[46],-0.234
same,glycan array binding signal (z-score),[47],-0.94

# Given with tabs: part of the list above.
binder	measurement	setting	value
B1	glycan array binding signal (z-score)	[40]	-0.017
same	glycan array binding signal (z-score)	[41]	0.038
